According to the supplement of paper PMC9262897, “Low-cost anti-mycobacterial drug discovery using engineered E. coli” (Nature Communications, 2022):
Where a name gives a salt, the structure may show the parent alone. ± gives the standard deviation of the averaged measurements. Shown are results outside the selection of lowest values, which stands elsewhere.

Tested on: E. coli TESEC Alr+ wild-type control
Assay: growth (OD600 after 10 h); higher = more growth (less inhibition)
Conditions: compound 0.1 mM; raw OD600 reference: median of DMSO wells 0.241, cell-free background 0.041
Protocol: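 TESEC Mtb Alr E. coli, or the Alr+ wild-type control, in 384-well plates with Prestwick library compounds at 0.1 mM and 1% DMSO, across arabinose induction levels of 1E3 to 1E7 nM. Growth is read as OD600 after 10 h at 37 °C in triplicate biological replicates.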

| Structure (SMILES) | growth |
| --- | --- |
| CN1[C@@H]2CC[C@H]1C[C@@H](OC(=O)C(O)c1ccccc1)C2 (mixture of isomers) [Homatropine hydrobromide (R,S)] | 0.257 ± 0.0061 |
